Results are given in words; binding and its absence hold for the method and conditions named. Binding seen in cells or lysates may run through a third protein. A yes stands for co-enrichment or nearness to the bait. Other partners may have been found. For some assays here: A no says only that the protein was not detected with the bait.

By UniProt entry, the sequences of proteins in these tests, tags left out. Where a name states a change or a piece, a line headed by the entry shows the natural chain unless it says otherwise. Residues count along the entry.
UniProt Q9NTX7, residues 2-359: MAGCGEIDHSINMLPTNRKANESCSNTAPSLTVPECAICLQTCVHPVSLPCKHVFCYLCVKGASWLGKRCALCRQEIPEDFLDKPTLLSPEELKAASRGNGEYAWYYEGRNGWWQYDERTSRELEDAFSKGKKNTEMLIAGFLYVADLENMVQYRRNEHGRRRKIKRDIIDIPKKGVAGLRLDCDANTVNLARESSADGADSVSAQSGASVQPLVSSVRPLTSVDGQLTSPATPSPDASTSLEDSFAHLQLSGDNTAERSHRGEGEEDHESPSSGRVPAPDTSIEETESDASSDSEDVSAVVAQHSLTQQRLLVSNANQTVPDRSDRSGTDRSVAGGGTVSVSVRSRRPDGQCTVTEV
UniProt Q9ULT8: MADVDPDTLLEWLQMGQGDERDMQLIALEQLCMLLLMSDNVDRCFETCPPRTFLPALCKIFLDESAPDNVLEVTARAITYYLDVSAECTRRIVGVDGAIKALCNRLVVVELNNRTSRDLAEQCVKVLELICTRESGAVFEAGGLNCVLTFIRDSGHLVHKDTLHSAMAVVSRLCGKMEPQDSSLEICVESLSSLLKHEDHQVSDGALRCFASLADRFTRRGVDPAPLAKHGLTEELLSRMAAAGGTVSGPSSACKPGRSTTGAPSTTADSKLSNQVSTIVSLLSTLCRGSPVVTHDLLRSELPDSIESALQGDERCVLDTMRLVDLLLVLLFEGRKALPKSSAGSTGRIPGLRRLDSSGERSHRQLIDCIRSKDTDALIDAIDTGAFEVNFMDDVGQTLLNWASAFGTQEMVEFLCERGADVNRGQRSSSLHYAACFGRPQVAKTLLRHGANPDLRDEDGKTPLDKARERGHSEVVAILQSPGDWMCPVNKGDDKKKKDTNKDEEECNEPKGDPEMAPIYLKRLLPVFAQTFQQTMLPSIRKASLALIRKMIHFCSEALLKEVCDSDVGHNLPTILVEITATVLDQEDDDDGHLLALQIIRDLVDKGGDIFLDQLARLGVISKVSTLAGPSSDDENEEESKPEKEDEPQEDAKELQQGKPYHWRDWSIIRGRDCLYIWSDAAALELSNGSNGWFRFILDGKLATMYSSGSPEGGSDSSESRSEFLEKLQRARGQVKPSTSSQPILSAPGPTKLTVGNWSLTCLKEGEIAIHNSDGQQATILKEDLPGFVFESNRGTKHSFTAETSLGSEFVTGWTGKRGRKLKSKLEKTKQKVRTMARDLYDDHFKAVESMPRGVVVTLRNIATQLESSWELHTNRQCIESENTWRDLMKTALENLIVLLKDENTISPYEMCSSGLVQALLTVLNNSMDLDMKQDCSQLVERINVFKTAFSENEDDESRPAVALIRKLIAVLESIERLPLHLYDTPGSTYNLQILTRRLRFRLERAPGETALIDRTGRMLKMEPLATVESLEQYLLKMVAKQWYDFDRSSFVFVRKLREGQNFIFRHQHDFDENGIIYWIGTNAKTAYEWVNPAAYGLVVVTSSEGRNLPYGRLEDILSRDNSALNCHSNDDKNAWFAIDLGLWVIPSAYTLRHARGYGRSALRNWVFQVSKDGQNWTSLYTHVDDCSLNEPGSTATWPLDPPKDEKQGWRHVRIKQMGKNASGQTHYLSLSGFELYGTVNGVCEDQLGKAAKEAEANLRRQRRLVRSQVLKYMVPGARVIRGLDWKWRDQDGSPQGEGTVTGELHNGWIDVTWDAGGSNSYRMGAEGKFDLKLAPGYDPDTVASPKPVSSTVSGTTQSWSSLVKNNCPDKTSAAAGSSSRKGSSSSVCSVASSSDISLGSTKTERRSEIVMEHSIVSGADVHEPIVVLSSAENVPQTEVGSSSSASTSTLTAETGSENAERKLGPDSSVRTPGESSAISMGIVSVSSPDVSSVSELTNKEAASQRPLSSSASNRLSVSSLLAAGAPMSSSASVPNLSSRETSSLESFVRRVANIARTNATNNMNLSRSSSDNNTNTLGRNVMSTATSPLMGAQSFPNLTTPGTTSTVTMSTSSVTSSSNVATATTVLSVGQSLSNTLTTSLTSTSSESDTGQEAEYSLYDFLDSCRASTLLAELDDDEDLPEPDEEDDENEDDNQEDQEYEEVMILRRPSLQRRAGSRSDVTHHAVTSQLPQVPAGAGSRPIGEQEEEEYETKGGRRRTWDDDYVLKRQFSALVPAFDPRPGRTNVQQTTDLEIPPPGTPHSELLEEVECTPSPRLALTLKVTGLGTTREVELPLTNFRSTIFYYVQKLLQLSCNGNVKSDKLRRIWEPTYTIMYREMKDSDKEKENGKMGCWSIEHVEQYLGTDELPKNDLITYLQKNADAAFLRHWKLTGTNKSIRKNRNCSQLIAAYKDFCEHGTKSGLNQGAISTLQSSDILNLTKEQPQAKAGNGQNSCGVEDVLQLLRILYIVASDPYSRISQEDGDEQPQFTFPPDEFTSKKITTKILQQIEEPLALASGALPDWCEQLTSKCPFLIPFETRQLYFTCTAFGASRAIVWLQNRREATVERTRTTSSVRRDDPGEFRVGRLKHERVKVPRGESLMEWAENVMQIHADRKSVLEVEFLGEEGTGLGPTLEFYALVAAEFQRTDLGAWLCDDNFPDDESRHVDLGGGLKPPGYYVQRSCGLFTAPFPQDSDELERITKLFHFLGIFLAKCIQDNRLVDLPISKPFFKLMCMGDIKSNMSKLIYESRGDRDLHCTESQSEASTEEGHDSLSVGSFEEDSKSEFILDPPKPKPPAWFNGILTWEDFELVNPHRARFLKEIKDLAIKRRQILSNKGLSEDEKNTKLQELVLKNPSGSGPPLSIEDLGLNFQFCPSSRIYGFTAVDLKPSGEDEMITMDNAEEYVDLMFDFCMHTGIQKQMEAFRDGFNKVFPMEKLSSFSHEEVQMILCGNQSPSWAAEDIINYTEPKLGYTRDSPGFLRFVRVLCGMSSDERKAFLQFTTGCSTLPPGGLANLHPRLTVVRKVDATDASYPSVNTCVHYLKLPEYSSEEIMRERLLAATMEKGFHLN
UniProt P09874: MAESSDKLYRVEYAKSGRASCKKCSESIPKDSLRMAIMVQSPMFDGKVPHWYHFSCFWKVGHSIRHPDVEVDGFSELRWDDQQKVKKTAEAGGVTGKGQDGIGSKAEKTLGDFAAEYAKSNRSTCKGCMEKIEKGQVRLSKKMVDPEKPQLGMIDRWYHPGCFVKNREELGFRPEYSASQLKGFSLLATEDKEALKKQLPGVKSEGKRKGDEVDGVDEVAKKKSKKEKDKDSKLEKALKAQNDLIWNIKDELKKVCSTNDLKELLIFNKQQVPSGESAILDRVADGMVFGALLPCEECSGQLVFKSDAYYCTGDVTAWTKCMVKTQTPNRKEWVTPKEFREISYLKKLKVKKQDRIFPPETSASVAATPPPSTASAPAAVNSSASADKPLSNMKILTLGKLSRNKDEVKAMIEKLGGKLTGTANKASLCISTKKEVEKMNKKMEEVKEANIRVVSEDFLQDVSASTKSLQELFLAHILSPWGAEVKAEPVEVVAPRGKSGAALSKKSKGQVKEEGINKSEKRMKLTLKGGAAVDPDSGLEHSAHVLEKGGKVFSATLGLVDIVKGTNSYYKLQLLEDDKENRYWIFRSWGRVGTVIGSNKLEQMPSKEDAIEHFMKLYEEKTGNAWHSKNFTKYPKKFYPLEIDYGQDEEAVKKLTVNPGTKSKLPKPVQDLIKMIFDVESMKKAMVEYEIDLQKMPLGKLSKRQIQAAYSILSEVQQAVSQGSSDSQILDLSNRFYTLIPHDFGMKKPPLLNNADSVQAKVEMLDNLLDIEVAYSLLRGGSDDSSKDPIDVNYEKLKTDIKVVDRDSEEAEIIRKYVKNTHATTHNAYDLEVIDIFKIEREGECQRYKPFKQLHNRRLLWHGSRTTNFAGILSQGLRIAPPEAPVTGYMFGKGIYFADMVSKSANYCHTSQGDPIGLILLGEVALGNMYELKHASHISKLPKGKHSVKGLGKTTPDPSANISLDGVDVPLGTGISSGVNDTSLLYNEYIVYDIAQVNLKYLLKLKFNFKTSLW
UniProt Q9UGN5: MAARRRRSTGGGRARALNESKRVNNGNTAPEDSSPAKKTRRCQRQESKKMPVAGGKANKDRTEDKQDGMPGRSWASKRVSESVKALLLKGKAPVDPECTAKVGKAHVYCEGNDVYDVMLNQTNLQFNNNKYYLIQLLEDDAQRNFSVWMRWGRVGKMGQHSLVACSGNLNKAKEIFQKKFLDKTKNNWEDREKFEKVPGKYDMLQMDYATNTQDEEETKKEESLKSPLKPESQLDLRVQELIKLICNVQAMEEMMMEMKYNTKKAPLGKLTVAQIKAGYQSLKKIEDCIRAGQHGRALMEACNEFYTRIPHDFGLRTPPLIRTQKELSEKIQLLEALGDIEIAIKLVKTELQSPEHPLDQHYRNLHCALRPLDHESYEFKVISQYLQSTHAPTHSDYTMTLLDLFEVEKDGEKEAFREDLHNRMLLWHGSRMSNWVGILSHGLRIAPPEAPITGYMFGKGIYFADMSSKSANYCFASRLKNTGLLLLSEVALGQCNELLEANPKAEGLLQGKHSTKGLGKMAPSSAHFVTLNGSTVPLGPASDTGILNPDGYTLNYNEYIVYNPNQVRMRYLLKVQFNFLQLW

Data on 6 molecules can be found in article PMC3143158.

What all share (experiment): affinity purification with mass spectrometry; HA-tagged RNF146 wildtype, ΔRING or control HECTD1 expressed in HEK293 cells, isolated from 3.5 mg lysate with anti-HA 3F10 affinity matrix; Coomassie-stained gel bands excised for LC-MS/MS
Test [1] has as its target HA-tagged wildtype RNF146 (human) (UniProt Q9NTX7).
The target in test [2] is HA-tagged HECTD1 (control E3 ligase) (UniProt Q9ULT8).
The target of test [3] is HA-tagged RNF146ΔRING (human) (UniProt Q9NTX7).
For test [4], the target named is HA-tagged HECTD1 (control E3 ligase), Q9ULT8. The note with it: remark: other sources report otherwise.

With “HECT-type ubiquitin E3 ligase HUWE1 (endogenous) (from UniProt Q7Z6Z7 1-4374) (enzyme)”, the binding result in test [1] is “binds”. With “PARP1 (endogenous) (from UniProt P09874 1-1014) (enzyme)”, in test [2], the binding entry was “no binding”. On to “PARP2 (endogenous) (from UniProt Q9UGN5 1-583) (enzyme)”, for which the binding entry is “binds” in test [3] and “no binding” in test [2]. Regarding “TNKS1 (endogenous) (from UniProt O95271-1 1-1327) (enzyme)”, the binding entry in test [3] was “binds”.

B1: TNKS2 (endogenous) (enzyme, UniProt Q9H2K2 1-1166)
chain: MSGRRCAGGGAACASAAAEAVEPAARELFEACRNGDVERVKRLVTPEKVNSRDTAGRKSTPLHFAAGFGRKDVVEYLLQNGANVQARDDGGLIPLHNACSFGHAEVVNLLLRHGADPNARDNWNYTPLHEAAIKGKIDVCIVLLQHGAEPTIRNTDGRTALDLADPSAKAVLTGEYKKDELLESARSGNEEKMMALLTPLNVNCHASDGRKSTPLHLAAGYNRVKIVQLLLQHGADVHAKDKGDLVPLHNACSYGHYEVTELLVKHGACVNAMDLWQFTPLHEAASKNRVEVCSLLLSYGADPTLLNCHNKSAIDLAPTPQLKERLAYEFKGHSLLQAAREADVTRIKKHLSLEMVNFKHPQTHETALHCAAASPYPKRKQICELLLRKGANINEKTKEFLTPLHVASEKAHNDVVEVVVKHEAKVNALDNLGQTSLHRAAYCGHLQTCRLLLSYGCDPNIISLQGFTALQMGNENVQQLLQEGISLGNSEADRQLLEAAKAGDVETVKKLCTVQSVNCRDIEGRQSTPLHFAAGYNRVSVVEYLLQHGADVHAKDKGGLVPLHNACSYGHYEVAELLVKHGAVVNVADLWKFTPLHEAAAKGKYEICKLLLQHGADPTKKNRDGNTPLDLVKDGDTDIQDLLRGDAALLDAAKKGCLARVKKLSSPDNVNCRDTQGRHSTPLHLAAGYNNLEVAEYLLQHGADVNAQDKGGLIPLHNAASYGHVDVAALLIKYNACVNATDKWAFTPLHEAAQKGRTQLCALLLAHGADPTLKNQEGQTPLDLVSADDVSALLTAAMPPSALPSCYKPQVLNGVRSPGATADALSSGPSSPSSLSAASSLDNLSGSFSELSSVVSSSGTEGASSLEKKEVPGVDFSITQFVRNLGLEHLMDIFEREQITLDVLVEMGHKELKEIGINAYGHRHKLIKGVERLISGQQGLNPYLTLNTSGSGTILIDLSPDDKEFQSVEEEMQSTVREHRDGGHAGGIFNRYNILKIQKVCNKKLWERYTHRRKEVSEENHNHANERMLFHGSPFVNAIIHKGFDERHAYIGGMFGAGIYFAENSSKSNQYVYGIGGGTGCPVHKDRSCYICHRQLLFCRVTLGKSFLQFSAMKMAHSPPGHHSVTGRPSVNGLALAEYVIYRGEQAYPEYLITYQIMRPEGMVDG
Turning to B1, the binding entry in test [3] is recorded as “binds”; in test [2], “no binding”.

B2: TNKS1 (endogenous), O95271-1 1-1327 (enzyme)
chain: MAASRRSQHHHHHHQQQLQPAPGASAPPPPPPPPLSPGLAPGTTPASPTASGLAPFASPRHGLALPEGDGSRDPPDRPRSPDPVDGTSCCSTTSTICTVAAAPVVPAVSTSSAAGVAPNPAGSGSNNSPSSSSSPTSSSSSSPSSPGSSLAESPEAAGVSSTAPLGPGAAGPGTGVPAVSGALRELLEACRNGDVSRVKRLVDAANVNAKDMAGRKSSPLHFAAGFGRKDVVEHLLQMGANVHARDDGGLIPLHNACSFGHAEVVSLLLCQGADPNARDNWNYTPLHEAAIKGKIDVCIVLLQHGADPNIRNTDGKSALDLADPSAKAVLTGEYKKDELLEAARSGNEEKLMALLTPLNVNCHASDGRKSTPLHLAAGYNRVRIVQLLLQHGADVHAKDKGGLVPLHNACSYGHYEVTELLLKHGACVNAMDLWQFTPLHEAASKNRVEVCSLLLSHGADPTLVNCHGKSAVDMAPTPELRERLTYEFKGHSLLQAAREADLAKVKKTLALEIINFKQPQSHETALHCAVASLHPKRKQVTELLLRKGANVNEKNKDFMTPLHVAAERAHNDVMEVLHKHGAKMNALDTLGQTALHRAALAGHLQTCRLLLSYGSDPSIISLQGFTAAQMGNEAVQQILSESTPIRTSDVDYRLLEASKAGDLETVKQLCSSQNVNCRDLEGRHSTPLHFAAGYNRVSVVEYLLHHGADVHAKDKGGLVPLHNACSYGHYEVAELLVRHGASVNVADLWKFTPLHEAAAKGKYEICKLLLKHGADPTKKNRDGNTPLDLVKEGDTDIQDLLRGDAALLDAAKKGCLARVQKLCTPENINCRDTQGRNSTPLHLAAGYNNLEVAEYLLEHGADVNAQDKGGLIPLHNAASYGHVDIAALLIKYNTCVNATDKWAFTPLHEAAQKGRTQLCALLLAHGADPTMKNQEGQTPLDLATADDIRALLIDAMPPEALPTCFKPQATVVSASLISPASTPSCLSAASSIDNLTGPLAELAVGGASNAGDGAAGTERKEGEVAGLDMNISQFLKSLGLEHLRDIFETEQITLDVLADMGHEELKEIGINAYGHRHKLIKGVERLLGGQQGTNPYLTFHCVNQGTILLDLAPEDKEYQSVEEEMQSTIREHRDGGNAGGIFNRYNVIRIQKVVNKKLRERFCHRQKEVSEENHNHHNERMLFHGSPFINAIIHKGFDERHAYIGGMFGAGIYFAENSSKSNQYVYGIGGGTGCPTHKDRSCYICHRQMLFCRVTLGKSFLQFSTMKMAHAPPGHHSVIGRPSVNGLAYAEYVIYRGEQAYPEYLITYQIMKPEAPSQTATAAEQKT
For the molecule B2, in test [4], the binding entry is reported as “no binding”.
